Measurements reported in article PMC10011557.
These are yes or no findings as the source states them, for the method shown. Some entries that bind do so weakly or less than the wild type. Sequences can lack the tags named with a protein.

Biological target: T1, GST-PPP6C protein (UniProt O00743)
T1 sequence: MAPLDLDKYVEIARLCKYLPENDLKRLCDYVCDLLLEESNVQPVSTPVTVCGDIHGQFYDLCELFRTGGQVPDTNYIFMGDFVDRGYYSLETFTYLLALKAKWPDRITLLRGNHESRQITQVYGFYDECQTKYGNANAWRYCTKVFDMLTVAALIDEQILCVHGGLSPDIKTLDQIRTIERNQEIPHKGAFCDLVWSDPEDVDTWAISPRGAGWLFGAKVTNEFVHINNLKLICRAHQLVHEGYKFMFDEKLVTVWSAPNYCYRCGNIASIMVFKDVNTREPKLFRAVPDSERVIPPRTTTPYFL
Experiment: pull-down; 3 μg of each recombinant protein mixed, 37 °C 1 h in 25 mM Tris pH 8.0, 150 mM NaCl, 2 mM DTT, 1 mg/ml BSA; GST-PPP6C captured with anti-PP6C antibody and Protein G agarose beads, Western blotting; both purified

B1: recombinant Myc-PPP6R3 protein (protein, UniProt Q5H9R7 1-873)
chain: MFWKFDLHSSSHIDTLLEREDVTLKELMDEEDVLQECKAQNRKLIEFLLKAECLEDLVSFIIEEPPQDMDEKIRYKYPNISCELLTSDVSQMNDRLGEDESLLMKLYSFLLNDSPLNPLLASFFSKVLSILISRKPEQIVDFLKKKHDFVDLIIKHIGTSAIMDLLLRLLTCIEPPQPRQDVLNWLNEEKIIQRLVEIVHPSQEEDRHSNASQSLCEIVRLSRDQMLQIQNSTEPDPLLATLEKQEIIEQLLSNIFHKEKNESAIVSAIQILLTLLETRRPTFEGHIEICPPGMSHSACSVNKSVLEAIRGRLGSFHELLLEPPKKSVMKTTWGVLDPPVGNTRLNVIRLISSLLQTNTSSINGDLMELNSIGVILNMFFKYTWNNFLHTQVEICIALILASPFENTENATITDQDSTGDNLLLKHLFQKCQLIERILEAWEMNEKKQAEGGRRHGYMGHLTRIANCIVHSTDKGPNSALVQQLIKDLPDEVRERWETFCTSSLGETNKRNTVDLVTTCHIHSSSDDEIDFKETGFSQDSSLQQAFSDYQMQQMTSNFIDQFGFNDEKFADQDDIGNVSFDRVSDINFTLNTNESGNIALFEACCKERIQQFDDGGSDEEDIWEEKHIAFTPESQRRSSSGSTDSEESTDSEEEDGAKQDLFEPSSANTEDKMEVDLSEPPNWSANFDVPMETTHGAPLDSVGSDVWSTEEPMPTKETGWASFSEFTSSLSTKDSLRSNSPVEMETSTEPMDPLTPSAAALAVQPEAAGSVAMEASSDGEEDAESTDKVTETVMNGGMKETLSLTVDAKTETAVFKSEEGKLSTSQDAACKDAEECPETAEAKCAAPRPPSSSPEQRTGQPSAPGDTSVNGPV
In the case of B1, the binding is reported as “binds”.
